# Data as given in PubChem BioAssay AID540276 (National Center for Advancing Translational Sciences (NCATS), 2011).
# Values joined by “and” are separate entries in the source; they are usually repeats but may differ in a detail not shown here. Equal values may be shown once. Screen size: about 300,000 compounds; about 5,400 (1.8%) were called active. The inconclusive results got no clear call from the source; some entries with a clear call stand among them for comparison. Calls follow the shape of the full dose curve; tested in HEK293 cells. Where the call is inconclusive, the potency comes from a doubtful curve fit.
# Assay: qHTS for inhibitors of binding or entry into cells for Marburg Virus
# Conditions: Marburg virus pseudotyped entry inhibition, cell reporter; activity change, negative = inhibition: at 37.8 µM (top of the series) unless noted
# % is scaled to controls: 0 for no effect and ±100 for the full control effect; potency is read from the fitted curve at half-maximal effect.
SMILES,Potency,"activity change, negative = inhibition"
Cc1ccc(NC(=O)c2c(C)oc3ccc(O)c(CN(C)Cc4ccccc4)c23)c(C)c1,"inconclusive: 35.5 µM [inhibitor, single point]",
C#CCOCCOCCOCCNc1nc(N2CCOCC2)nc(N2CCN(C(=O)[C@H]([C@@H](C)CC)n3cc(CCCCN)nn3)CC2)n1,,inactive: 9.41%
CC(=O)Nc1cc2c(nc1C)nc(C)n2Cc1ccc(Br)cc1,,inactive: 1.61% [at 46.1 µM]
Cn1c(NC(=O)c2cccnc2)nc2ccccc21,"inconclusive: 2.82 µM [inhibitor, full curve, poor fit]",
O=C(CCNC(=O)c1ccc([N+](=O)[O-])cc1)NCCCN1CCCC1=O,"inconclusive: 1.26 µM [inhibitor, partial curve, poor fit]",
Cc1c(C(=O)N2CCN(CCc3ccccc3)CC2)oc2ccccc12,,inactive: 11.5%
CCOc1ccc(/C=C/C(=O)N(CC)CC(=O)NCc2cccs2)cc1OC,"inconclusive: 3.55 µM [inhibitor, single point]",
CCn1c(NC(C)=O)nc2ccccc21,,inactive: -7.29%
CC(C)n1c(O)c(N=NC(=O)Cn2ccc(C(F)(F)F)n2)c2ccccc21,"inconclusive: 0.112 µM [activator, full curve, poor fit]",
CC1=C([N+](=O)[O-])C(c2ccc(O)c(O)c2)NC(=O)N1 (stereo unspecified),,inactive: 29.3% [at 46.1 µM]
O=c1c2ccccc2sn1-c1nccs1,"inconclusive: 25.1 µM [inhibitor, partial curve, poor fit]",
C=CCN1c2ccccc2[C@]23CCC(=O)N(CCCOC(C)C)C2=NC(C(=O)OC)=C(C(=O)OC)[C@H]13,,inactive: -10.2% [at 14.2 µM]
C#CCOc1ccc(/C=C2/C(=O)NN(c3ccccc3)C2=O)cc1OC,,inactive: -1.37%
O=C(COc1ccc(F)cc1)Nc1ccc(S(=O)(=O)N(Cc2ccccc2)c2ccccc2)cc1,"inconclusive: 11.2 µM [inhibitor, partial curve, poor fit]",
CCOc1ccc(N(CC)C(=O)COc2cc(=O)n(CC)c3ccccc23)cc1,,inactive: -17.1%
COC(=O)c1cccc(NC(=O)Nc2ccccc2OC)c1,"inconclusive: 3.16 µM [activator, single point]",
O=C(COc1ccc(Cl)cc1)NCc1nnc(SCC(=O)NC2CCCC2)o1,"inconclusive: 1.26 µM [inhibitor, single point]",
O=C(C=Cc1ccccc1)c1ccccc1O,"inactive and inconclusive: 168 nM [activator, partial curve, poor fit]",
Cc1ccc(-n2c(C)cc(/C=N/NC(=O)CN(c3ccc(C)cc3C)S(C)(=O)=O)c2C)cc1,"inconclusive: 0.891 µM [activator, partial curve, poor fit]",
COc1ccc(-n2c(N)c(C(=O)NCc3ccco3)c3nc4ccccc4nc32)cc1,,inactive: -14.4%
CCOC(=O)N1CCN(C(=O)COc2ccc(Cl)c(C)c2)CC1,,inactive: -0.882% [at 46.1 µM]
Cc1cc(N)n(-c2ccc(C)c(C)c2)n1,,inactive: 10.9% [at 46.1 µM]
CCOc1ccc2nc(N(CCN(CC)CC)C(=O)/C=C/c3cccs3)sc2c1,"inconclusive: 3.98 µM [inhibitor, partial curve, poor fit]",
Cc1c(OCC(F)(F)F)ccnc1CS(=O)c1nc2ccccc2[nH]1 (stereo unspecified),"inactive and inconclusive: 2.31 µM [activator, partial curve]",

SMILES,Potency,"activity change, negative = inhibition"
CCN(CC)S(=O)(=O)c1ccc(NC(=O)C2c3ccccc3Oc3ccccc32)cc1,"inconclusive: 29.1 µM [inhibitor, single point]",
O=C(NC1CCCCC1)c1cc2nc(-c3ccco3)cc(C(F)(F)F)n2n1,"inconclusive: 35.5 µM [activator, single point]",
CN(C)S(=O)(=O)c1ccc(NC(=O)COc2ncnc3c2cnn3-c2ccccc2)cc1,"inconclusive: 1.12 µM [inhibitor, full curve, poor fit]",
Cc1csc(NC(=O)CCNC(=O)c2ccc([N+](=O)[O-])cc2)n1,,inactive: 4.59%
COC(=O)c1c(NC(NC(=O)C(C)(C)C)C(Cl)(Cl)Cl)sc2c1CCC2 (stereo unspecified),"inconclusive: 35.5 µM [inhibitor, single point]",
Cc1ccc(S(=O)(=O)c2nc(-c3ccco3)oc2SCc2ccc(F)cc2)cc1,,inactive: -0.99% [at 46.1 µM]
Cn1cnc2c1c(=O)n(Cc1ccccc1C#N)c(=O)n2C,"inconclusive: 7.94 µM [inhibitor, partial curve, poor fit]",
COc1ccccc1NC(=O)CSc1nc2ccccc2cc1Cc1ccccc1,"inconclusive: 29.1 µM [inhibitor, single point]",
CC1(C(=O)NC2CCCCC2)Cc2ccccc2C(=O)N1Cc1ccc(F)cc1 (stereo unspecified),"inconclusive: 35.5 µM [activator, single point]",
Cc1ccc(C)c(N=Cc2ccc(-c3ccc([N+](=O)[O-])cc3)o2)c1,,inactive: -23.7% [at 46.1 µM]
COc1cccc2sc(NN)nc12,,inactive: -0.832% [at 46.1 µM]
COc1ccc(Cn2cnc3c4cc(F)ccc4n(C)c3c2=O)cc1,"inconclusive: 2.24 µM [inhibitor, full curve, poor fit]",
COC(=O)c1cc2ccsc2n1Cc1nc(-c2ccc(OC)cc2)oc1C,"inconclusive: 20.6 µM [inhibitor, single point]",
Cc1ccc(C(=O)C(C)OC(=O)Cn2cnc3c2c(=O)n(C)c(=O)n3C)cc1 (stereo unspecified),"inconclusive: 1.26 µM [inhibitor, single point]",
O=C(Nc1ccc(Cl)cn1)c1ccccc1F,"inconclusive: 14.6 µM [inhibitor, single point]",
CC1(C)Cc2c(ccc3ccccc23)/C(=C/C#N)N1,"inconclusive: 16.4 µM [inhibitor, single point]",
CCc1ccc(-n2c(=S)sc3c(=O)n(-c4ccccc4)c(SCC(=O)O)nc32)cc1,"inconclusive: 8.91 µM [activator, partial curve, poor fit]",
COc1cc(/C=N/NC(=O)CCN2CCCCC2)ccc1O,,inactive: 18.3% [at 46.1 µM]
O=C(Cn1cnc2c(cnn2-c2ccc(F)cc2)c1=O)OCc1ccccc1,,inactive: 4.08%
COc1ccc(-c2cc(OC)c3c(C)oc(C)c3c(=O)c2)cc1OC,,inactive: -3.82%
Cc1ccccc1-n1c(SCc2ccccn2)nc2n[nH]c(C)c2c1=N,"inconclusive: 25.1 µM [inhibitor, single point]",
Cc1ccc(NC(=S)N(Cc2ccco2)C2CCN(C(C)C)CC2)cc1,"inconclusive: 6.31 µM [activator, single point]",
COc1cc(OC)c(OC)cc1CN1CCN(c2ccc(F)cc2)CC1,,inactive: -18.4%
CCCCCCCCCCCCCCCCn1cc[n+](C)c1,"inconclusive: 22.4 µM [inhibitor, single point]",

# 19 of the compounds above, as tab-separated lines.
SMILES	Potency	activity change, negative = inhibition
CN(C)S(=O)(=O)c1ccc(NC(=O)COc2ncnc3c2cnn3-c2ccccc2)cc1	inconclusive: 1.12 µM [inhibitor, full curve, poor fit]	
Cc1csc(NC(=O)CCNC(=O)c2ccc([N+](=O)[O-])cc2)n1		inactive: 4.59%
COC(=O)c1c(NC(NC(=O)C(C)(C)C)C(Cl)(Cl)Cl)sc2c1CCC2 (stereo unspecified)	inconclusive: 35.5 µM [inhibitor, single point]	
Cc1ccc(S(=O)(=O)c2nc(-c3ccco3)oc2SCc2ccc(F)cc2)cc1		inactive: -0.99% [at 46.1 µM]
Cn1cnc2c1c(=O)n(Cc1ccccc1C#N)c(=O)n2C	inconclusive: 7.94 µM [inhibitor, partial curve, poor fit]	
COc1ccccc1NC(=O)CSc1nc2ccccc2cc1Cc1ccccc1	inconclusive: 29.1 µM [inhibitor, single point]	
CC1(C(=O)NC2CCCCC2)Cc2ccccc2C(=O)N1Cc1ccc(F)cc1 (stereo unspecified)	inconclusive: 35.5 µM [activator, single point]	
Cc1ccc(C)c(N=Cc2ccc(-c3ccc([N+](=O)[O-])cc3)o2)c1		inactive: -23.7% [at 46.1 µM]
COc1cccc2sc(NN)nc12		inactive: -0.832% [at 46.1 µM]
COc1ccc(Cn2cnc3c4cc(F)ccc4n(C)c3c2=O)cc1	inconclusive: 2.24 µM [inhibitor, full curve, poor fit]	
COC(=O)c1cc2ccsc2n1Cc1nc(-c2ccc(OC)cc2)oc1C	inconclusive: 20.6 µM [inhibitor, single point]	
Cc1ccc(C(=O)C(C)OC(=O)Cn2cnc3c2c(=O)n(C)c(=O)n3C)cc1 (stereo unspecified)	inconclusive: 1.26 µM [inhibitor, single point]	
O=C(Nc1ccc(Cl)cn1)c1ccccc1F	inconclusive: 14.6 µM [inhibitor, single point]	
CC1(C)Cc2c(ccc3ccccc23)/C(=C/C#N)N1	inconclusive: 16.4 µM [inhibitor, single point]	
CCc1ccc(-n2c(=S)sc3c(=O)n(-c4ccccc4)c(SCC(=O)O)nc32)cc1	inconclusive: 8.91 µM [activator, partial curve, poor fit]	
COc1cc(/C=N/NC(=O)CCN2CCCCC2)ccc1O		inactive: 18.3% [at 46.1 µM]
O=C(Cn1cnc2c(cnn2-c2ccc(F)cc2)c1=O)OCc1ccccc1		inactive: 4.08%
COc1ccc(-c2cc(OC)c3c(C)oc(C)c3c(=O)c2)cc1OC		inactive: -3.82%
Cc1ccccc1-n1c(SCc2ccccn2)nc2n[nH]c(C)c2c1=N	inconclusive: 25.1 µM [inhibitor, single point]	

# Remaining list, next part:

SMILES,Potency,"activity change, negative = inhibition"
CCCCC(=O)Nc1ccc(NC(=O)C(C)C)cn1,,inactive: 28.9%
Fc1ccc(OCCOCCN2CCCC2)cc1,"inconclusive: 10 µM [activator, partial curve]",
COc1ccc(CCc2nnc(CCC(=O)NCC3CCCO3)o2)cc1 (stereo unspecified),,inactive: -2.45% [at 46.1 µM]
COc1cc(NC(=O)C2Cc3ccccc3CN2S(C)(=O)=O)cc(OC)c1 (stereo unspecified),,inactive: 5.36%
Cc1cccn2cc(CNc3ccccc3)nc12,"inconclusive: 5.8 µM [activator, full curve, poor fit]",
Cc1nc2ccc(S(=O)(=O)NCC(=O)N3CCc4ccccc4C3)cc2s1,,inactive: 7.48%
CCCCOc1ccc(C(=O)NCC(=O)NCC(c2ccc(OC)cc2)N2CCCC2)cc1 (stereo unspecified),,inactive: -15.6%
Cn1cccc1/C=N\NC(=O)c1cncc(Br)c1,"inconclusive: 5.62 µM [activator, single point]",
CCC(=O)c1ccc(N2CCN(C(=O)c3cccc(F)c3)CC2)c(F)c1,"inconclusive: 6.31 µM [activator, single point]",
CC1CCCCN1C(=O)CSc1nnc(-c2ccc(Cl)s2)o1 (stereo unspecified),,inactive: 28.4%
COc1ccc(C2CC(c3ccc4ccccc4c3)=NN2C(=O)CSc2ncccn2)cc1 (stereo unspecified),"inconclusive: 0.112 µM [inhibitor, full curve, poor fit]",
OC(CNCCc1ccccc1)COc1ccc(OCC(O)CNCCc2ccccc2)cc1 (stereo unspecified),active: 3.16 µM,
COc1ccc(C2c3c(ncn(CCCO)c3=N)Oc3ccc4ccccc4c32)cc1 (stereo unspecified),"inconclusive: 4.47 µM [inhibitor, full curve, poor fit]",
O=C(COC(=O)c1ccccc1S(=O)(=O)N1CCCCC1)NCC(F)(F)F,,inactive: -20.6%
Cc1ccc(C)c(S(=O)(=O)N2CCN(C(=O)CCNS(=O)(=O)c3ccc(C)c(C)c3)CC2)c1,"inconclusive: 0.316 µM [inhibitor, full curve, poor fit]",
CN(Cc1ccc(F)cc1)C(=O)C(Cc1ccccc1)NC(=O)c1ccccc1 (stereo unspecified),"inconclusive: 35.5 µM [inhibitor, single point]",
CCCCn1c(SCc2nc3ccccc3s2)nc2cc(S(N)(=O)=O)ccc21,active: 1.83 µM,
CCOc1ccc(S(=O)(=O)N2CCC(C(=O)N3CCCCCC3)CC2)cc1Cl,"inconclusive: 20 µM [inhibitor, single point]",
S=c1[nH]nc(-c2ccn[nH]2)n1-c1ccccc1Cl,"inconclusive: 7.94 µM [activator, partial curve, poor fit]",
N#CC1=C(SCC(=O)Nc2ccccc2)NC(=O)CC1c1ccco1 (stereo unspecified),"inconclusive: 18.3 µM [inhibitor, partial curve, poor fit]",
O=C(CNC1CCCC1)Nc1ccc(S(=O)(=O)N2CCCCC2)cc1,,inactive: -3.61% [at 46.1 µM]
O=C(CSc1nc2ccccc2c(=O)n1-c1ccc(Cl)cc1)c1ccco1,"inconclusive: 1.78 µM [activator, partial curve, poor fit]",
CCOP(=O)(OCC)C(NC(=O)Nc1ccc(C)c(Cl)c1)c1ccccc1 (stereo unspecified),"inactive and inconclusive: 17.8 µM [inhibitor, single point]",
